The list shows a part of the results.
Tests used:
Experiment in all cases: glycan array binding signal (z-score within array); higher = stronger binding
Details in all cases: glycan notation: IUPAC condensed, linker removed
Gal(b1-4)Glc = target: Gal(b1-4)Glc
Method in brief: (§1)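 Glycan array data were curated from 3228 arrays in the Consortium for Functional Glycomics database and kept only where the protein sequence was available. Glycan names were converted to IUPAC-condensed notation, and columns mapping to the same glycan were averaged. The binding signal is a within-array Z-score, averaged across arrays of the same protein sequence at different concentrations or buffers and across linkers. Negative Z-scores can be read as non-binding.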

Gal(b1-4)Glc6S = target: Gal(b1-4)Glc6S
Method in brief: as §1

Gal(b1-4)GlcNAc = target: Gal(b1-4)GlcNAc
Method in brief: as §1

[1] = target: Gal(b1-4)GlcNAc(a1-6)Gal(b1-4)GlcNAc
Method in brief: as §1

Gal(b1-4)GlcNAc(b1-2)Man = target: Gal(b1-4)GlcNAc(b1-2)Man
Method in brief: as §1

[2] = target: Gal(b1-4)GlcNAc(b1-2)Man(a1-3)Man(b1-4)GlcNAc(b1-4)GlcNAc
Method in brief: as §1

[3] = target: Gal(b1-4)GlcNAc(b1-2)Man(a1-3)[Gal(b1-4)GlcNAc(b1-2)Man(a1-6)]Man(b1-4)GlcNAc(b1-4)GlcNAc
Method in brief: as §1

[4] = target: Gal(b1-4)GlcNAc(b1-2)Man(a1-3)[Gal(b1-4)GlcNAc(b1-2)Man(a1-6)]Man(b1-4)GlcNAc(b1-4)[Fuc(a1-6)]GlcNAc
Method in brief: as §1

[5] = target: Gal(b1-4)GlcNAc(b1-2)Man(a1-3)[Gal(b1-4)GlcNAc(b1-2)Man(a1-6)][Gal(b1-4)GlcNAc(b1-4)]Man(b1-4)GlcNAc(b1-4)[Fuc(a1-6)]GlcNAc
Method in brief: as §1

[6] = target: Gal(b1-4)GlcNAc(b1-2)Man(a1-3)[Gal(b1-4)GlcNAc(b1-2)Man(a1-6)][GlcNAc(b1-4)]Man(b1-4)GlcNAc(b1-4)[Fuc(a1-6)]GlcNAc
Method in brief: as §1

[7] = target: Gal(b1-4)GlcNAc(b1-2)Man(a1-3)[GlcNAc(b1-2)Man(a1-6)]Man(b1-4)GlcNAc(b1-4)GlcNAc
Method in brief: as §1

[8] = target: Gal(b1-4)GlcNAc(b1-2)Man(a1-3)[GlcNAc(b1-4)][Gal(b1-4)GlcNAc(b1-2)Man(a1-6)]Man(b1-4)GlcNAc(b1-4)GlcNAc
Method in brief: as §1

[9] = target: Gal(b1-4)GlcNAc(b1-2)Man(a1-3)[Man(a1-6)]Man(b1-4)GlcNAc(b1-4)GlcNAc
Method in brief: as §1

[10] = target: Gal(b1-4)GlcNAc(b1-2)Man(a1-6)Man(b1-4)GlcNAc(b1-4)GlcNAc
Method in brief: as §1

[11] = target: Gal(b1-4)GlcNAc(b1-2)Man(a1-6)[GlcNAc(b1-2)Man(a1-3)]Man(b1-4)GlcNAc(b1-4)GlcNAc
Method in brief: as §1

[12] = target: Gal(b1-4)GlcNAc(b1-2)Man(a1-6)[Man(a1-3)]Man(b1-4)GlcNAc(b1-4)GlcNAc
Method in brief: as §1

[13] = target: Gal(b1-4)GlcNAc(b1-2)[Gal(b1-4)GlcNAc(b1-4)]Man(a1-3)[Gal(b1-4)GlcNAc(b1-2)Man(a1-6)]Man(b1-4)GlcNAc(b1-4)GlcNAc
Method in brief: as §1

[14] = target: Gal(b1-4)GlcNAc(b1-2)[Gal(b1-4)GlcNAc(b1-4)]Man(a1-3)[Gal(b1-4)GlcNAc(b1-2)[Gal(b1-4)GlcNAc(b1-6)]Man(a1-6)]Man(b1-4)GlcNAc(b1-4)GlcNAc
Method in brief: as §1

[15] = target: Gal(b1-4)GlcNAc(b1-2)[Gal(b1-4)GlcNAc(b1-4)]Man(a1-3)[GlcNAc(b1-4)][Gal(b1-4)GlcNAc(b1-2)Man(a1-6)]Man(b1-4)GlcNAc(b1-4)GlcNAc
Method in brief: as §1

[16] = target: Gal(b1-4)GlcNAc(b1-2)[Gal(b1-4)GlcNAc(b1-4)]Man(a1-3)[GlcNAc(b1-4)][Gal(b1-4)GlcNAc(b1-2)[Gal(b1-4)GlcNAc(b1-6)]Man(a1-6)]Man(b1-4)GlcNAc(b1-4)GlcNAc
Method in brief: as §1

[17] = target: Gal(b1-4)GlcNAc(b1-2)[Gal(b1-4)GlcNAc(b1-6)]Man(a1-6)[Gal(b1-4)GlcNAc(b1-2)Man(a1-3)]Man(b1-4)GlcNAc(b1-4)GlcNAc
Method in brief: as §1

[18] = target: Gal(b1-4)GlcNAc(b1-2)[Gal(b1-4)GlcNAc(b1-6)]Man(a1-6)[Gal(b1-4)GlcNAc(b1-2)Man(a1-3)]Man(b1-4)GlcNAc(b1-4)[Fuc(a1-6)]GlcNAc
Method in brief: as §1

B1: MXA PilAct-eGFP (Myxococcus xanthus), Q59589 (protein)
chain: MRVSRFNPRNRGFTLIELMIVVAIIGILAAIAIPNFIKFQARSKQSEAKTNLKALYTAQKSFFSEKDRYSDFANEIGFAPERGNRYGYRVSAAAGDCEVRNAADLPVPAAGVPCISNDSFRFGANSAIDDPTPVVARFVPQGAAGWNTTLGVQPTIADCPNCNFFAGARGNADNEATFDDWVIAGFEGSGQVGPCSEAGNVASGTPYNTRNDVACDGAAQ
- glycan array binding signal (z-score) (Gal(b1-4)Glc): -1.09
- glycan array binding signal (z-score) (Gal(b1-4)Glc6S): 0.801
- glycan array binding signal (z-score) (Gal(b1-4)GlcNAc): -0.404
- glycan array binding signal (z-score) [1]: -0.795
- glycan array binding signal (z-score) (Gal(b1-4)GlcNAc(b1-2)Man): -0.783
- glycan array binding signal (z-score) [2]: 1.07
- glycan array binding signal (z-score) [3]: 1.44
- glycan array binding signal (z-score) [4]: -0.023
- glycan array binding signal (z-score) [5]: 0.313
- glycan array binding signal (z-score) [6]: -0.143
- glycan array binding signal (z-score) [7]: 0.083
- glycan array binding signal (z-score) [8]: -0.265
- glycan array binding signal (z-score) [9]: -0.783
- glycan array binding signal (z-score) [10]: -0.203
- glycan array binding signal (z-score) [11]: -0.132
- glycan array binding signal (z-score) [12]: -1.29
- glycan array binding signal (z-score) [13]: 0.176
- glycan array binding signal (z-score) [14]: 1.15
- glycan array binding signal (z-score) [15]: 0.006
- glycan array binding signal (z-score) [16]: 1.04
- glycan array binding signal (z-score) [17]: 0.141
- glycan array binding signal (z-score) [18]: 1.03

Reference: the supplement of paper PMC8728848
